Reference: publication PMC12048567
These are yes or no findings as the source states them, for the method shown. In cells and extracts the contact can be indirect. For some of these results: Binding can be weak; no strength is given. For some of these results: Sequences can lack the tags named with a protein.

By UniProt entry, the sequences of proteins in these tests, tags left out. Where a name states a change or a piece, a line headed by the entry shows the natural chain unless it says otherwise.
UniProt Q0DNU1: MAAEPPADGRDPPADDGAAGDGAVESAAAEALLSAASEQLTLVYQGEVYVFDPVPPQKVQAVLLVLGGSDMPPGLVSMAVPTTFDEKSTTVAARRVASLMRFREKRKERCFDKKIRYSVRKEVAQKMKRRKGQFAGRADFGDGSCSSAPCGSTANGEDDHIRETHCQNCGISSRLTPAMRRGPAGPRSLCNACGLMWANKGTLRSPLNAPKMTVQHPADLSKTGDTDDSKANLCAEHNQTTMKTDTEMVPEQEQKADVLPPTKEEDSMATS
UniProt Q336P5: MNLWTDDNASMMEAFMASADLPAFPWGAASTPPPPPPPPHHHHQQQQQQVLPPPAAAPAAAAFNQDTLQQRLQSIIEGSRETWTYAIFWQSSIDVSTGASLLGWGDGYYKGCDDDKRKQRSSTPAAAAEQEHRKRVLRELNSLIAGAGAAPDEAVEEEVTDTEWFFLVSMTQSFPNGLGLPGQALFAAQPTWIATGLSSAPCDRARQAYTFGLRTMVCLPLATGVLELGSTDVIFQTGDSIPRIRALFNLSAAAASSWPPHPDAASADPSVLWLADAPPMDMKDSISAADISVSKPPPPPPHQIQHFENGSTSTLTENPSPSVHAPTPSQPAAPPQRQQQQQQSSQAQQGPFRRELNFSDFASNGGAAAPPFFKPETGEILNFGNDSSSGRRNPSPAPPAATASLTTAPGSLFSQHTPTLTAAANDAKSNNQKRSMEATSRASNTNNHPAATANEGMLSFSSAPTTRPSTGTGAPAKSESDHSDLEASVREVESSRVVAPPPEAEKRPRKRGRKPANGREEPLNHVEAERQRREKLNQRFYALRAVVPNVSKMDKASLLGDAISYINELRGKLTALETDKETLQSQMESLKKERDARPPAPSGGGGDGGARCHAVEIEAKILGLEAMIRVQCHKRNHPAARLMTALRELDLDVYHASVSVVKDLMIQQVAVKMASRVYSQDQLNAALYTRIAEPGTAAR

Legend:
JAZ1-YC (rice) = molecular target: T1, JAZ1-YC (rice) (UniProt Q7XPM8); assay: split reporter; BiFC of JAZ1-YC with GATA19-YN in Nicotiana benthamiana epidermal cells after agroinfiltration; YFP fluorescence by confocal microscopy
T1 sequence: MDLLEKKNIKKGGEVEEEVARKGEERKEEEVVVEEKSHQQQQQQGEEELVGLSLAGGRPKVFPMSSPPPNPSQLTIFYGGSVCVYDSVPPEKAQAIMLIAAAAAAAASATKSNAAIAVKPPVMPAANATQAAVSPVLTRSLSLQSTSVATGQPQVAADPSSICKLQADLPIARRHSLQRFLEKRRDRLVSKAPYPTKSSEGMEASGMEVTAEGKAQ

GATA19-V5 (rice) = GATA19-V5 (rice) (UniProt Q0DNU1); assay: co-IP; anti-V5 monoclonal antibody on Dynabeads Protein G; 1:1 combination of cell-free expressed GATA19-V5 with MYC2-Flag, 2 h at 4 °C; Western blot
JAZ1-His (rice) = molecular target: T2, JAZ1-His (rice) (UniProt Q7XPM8); assay: co-IP; anti-His monoclonal antibody on Dynabeads Protein G; 1:1 mixture of cell-free expressed JAZ1-His/JAZ8-His/JAZ10-His and GATA19-V5, 2 h at 4 °C; mouse IgG as negative control; Western blot
T2 sequence: T1 sequence

JAZ8-His (rice) = molecular target: T3, JAZ8-His (rice) (UniProt Q69P94); assay: as above
T3 sequence: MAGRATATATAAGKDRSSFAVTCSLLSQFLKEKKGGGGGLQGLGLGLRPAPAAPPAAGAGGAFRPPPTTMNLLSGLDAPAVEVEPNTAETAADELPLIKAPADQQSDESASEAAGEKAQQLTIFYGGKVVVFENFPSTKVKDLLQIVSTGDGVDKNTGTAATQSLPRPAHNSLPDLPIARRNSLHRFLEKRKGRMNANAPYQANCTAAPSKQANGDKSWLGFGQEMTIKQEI

GATA19-YN (rice)
binding (JAZ1-YC (rice)): binds

MYC2-Flag (from UniProt Q336P5 1-699)
binding (GATA19-V5 (rice)): no binding

GATA19-V5 (from UniProt Q0DNU1)
binding (JAZ1-His (rice)): binds
binding (JAZ8-His (rice)): no binding
